The record followed here is patent US4368329A, “Process of preparing thiopyrylium sensitizing dyes” (Minnesota Mining and Manufacturing Company, priority 1981, dated 1983).

Series [1] in a line: Photoconduction enhancement by dye in polycarbonate film with photoconductor 1,5-diphenyl-3-styryl-2-pyrazoline (corona charge, Stati-Tester). To be noted: for Time to Vo/2: Examples 36-49, no dye: 43 sec; for Initial Voltage: Table 3, Examples 32-35, 0.01 g dye per 10 ml; for t1/2V (time for the initial potential to drop to half): Table 3, Examples 32-35, no dye: 43 sec.
Series [2] in a line: Photoconduction enhancement by dye in polycarbonate film with photoconductor 5-(p-diethylaminophenyl)-3-(p-diethylaminostyryl)-1-phenyl-2-pyrazoline. To be noted: Examples 50-60, no dye: 6.0 sec.

Molecules are shown by their SMILES.

Consider `Nc1ccc(-c2cc(-c3ccccc3)cc(-c3ccccc3)[s+]2)cc1` [Example 2], for which, in series [1], the “Time to Vo/2” value was determined as 0.8 s, the “Initial Voltage” value is on record as “+610 V” and the “t1/2V (time for the initial potential to drop to half)” value is 0.8 s. Moreover, the “Time to Vo/2” value in series [2] was determined as 1.2 s.
In the case of `CNc1ccc(-c2cc(-c3ccccc3)cc(-c3ccccc3)[s+]2)cc1` [Example 4], in series [1], the “Time to Vo/2” value was determined as 0.9 s, the “Initial Voltage” value is “+555 V” and the “t1/2V (time for the initial potential to drop to half)” value is 0.9 s. In series [2], the “Time to Vo/2” value stood at 1.3 s.
Consider `CN(C)c1ccc(-c2cc(-c3ccccc3)cc(-c3ccccc3)[s+]2)cc1` [Example 5], for which the “Time to Vo/2” value in series [1] was 0.7 s; in series [2] it was 1.2 s.
For `CCN(CC)c1ccc(-c2cc(-c3ccccc3)cc(-c3ccccc3)[s+]2)cc1` [Example 7], in that order: 1.6 s and 1.4 s.
On to `CCN(Cc1ccccc1)c1ccc(-c2cc(-c3ccccc3)cc(-c3ccccc3)[s+]2)cc1` [Example 8], for which the “Time to Vo/2” value in series [2] was found to be 1.0 s.
In the case of `c1ccc(CN(Cc2ccccc2)c2ccc(-c3cc(-c4ccccc4)cc(-c4ccccc4)[s+]3)cc2)cc1` [Example 11], in series [1], the “Time to Vo/2” value came to 1.1 s.
Consider `Cc1cc(-c2cc(-c3ccccc3)cc(-c3ccccc3)[s+]2)ccc1N` [Example 12], for which, in series [1], the “Time to Vo/2” value was determined as 1.0 s.
Still for that read-out and setting: to `Cc1cc(N)ccc1-c1cc(-c2ccccc2)cc(-c2ccccc2)[s+]1` [Example 14] belongs 0.9 s.
With `Cc1cc(N)ccc1-c1cc(-c2ccccc2)cc(-c2ccccc2)[s+]1` [Example 15], in series [1], the “Time to Vo/2” value turned out to be 1.0 s, the “Initial Voltage” value is recorded as “+625 V” and the “t1/2V (time for the initial potential to drop to half)” value came out at 1.0 s.
As for `Cc1cc(N(C)C)ccc1-c1cc(-c2ccccc2)cc(-c2ccccc2)[s+]1` [Example 16], in series [1], the “Time to Vo/2” value amounted to 1.0 s.
For the compound `Cc1cc(-c2cc(-c3ccccc3)cc(-c3ccccc3)[s+]2)cc(C)c1N` [Example 17], the “Time to Vo/2” value is 1.0 s in series [1] and 1.2 s in series [2].
Taken in the same sequence, the figures for `CCc1cc(-c2cc(-c3ccccc3)cc(-c3ccccc3)[s+]2)cc(CC)c1N` [Example 18] were 0.3 s and 1.5 s.
On to `COc1cc(-c2cc(-c3ccccc3)cc(-c3ccccc3)[s+]2)ccc1N` [Example 21], for which the “Time to Vo/2” value in series [2] was determined as 1.2 s.
On the same count and under the same terms, the same measure for `COc1cc(N)ccc1-c1cc(-c2ccccc2)cc(-c2ccccc2)[s+]1` [Example 23]: 1.1 s; for `COc1cc(-c2cc(-c3ccccc3)cc(-c3ccccc3)[s+]2)c(OC)cc1N` [Example 25]: 1.8 s.
Turning to `Nc1ccc(-c2cc(-c3ccccc3)cc(-c3ccccc3)[s+]2)c(Cl)c1` [Example 27], in series [1], the “Time to Vo/2” value was 5.4 s.
On the same count and under the same terms, the same measure for `Nc1ccc(-c2cc(-c3ccccc3)cc(-c3ccccc3)[s+]2)cc1N` [Example 29]: 11.2 s.
